This assay concerns CD2F1 mice, L1210 leukemia ip, survival T/C. In words: NCI In Vivo Anticancer Drug Screen. Data for tumor model L1210 Leukemia (intraperitoneal) in CD2F1 (CDF1) mice. The following applies: higher T/C = longer survival. The gist of the method:
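Implant tumor; dose compound or vehicle; measure endpoint in both groups; report treated divided by control.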

Setting [1] is: T/C endpoint: mean survival time, dose: 400.0 mg/kg/injection, schedule: Q04DX002 (ip), vehicle: saline with Tween-80.
[2] abbreviates: T/C endpoint: mean survival time, dose: 400.0 mg/kg/injection, schedule: Q04DX003 (ip), vehicle: saline with Tween-80.
The mark [3] stands for this setting: T/C endpoint: mean survival time, dose: 100.0 mg/kg/injection, schedule: Q01DX001 (ip), vehicle: saline with Tween-80.
Where [4] appears, read: T/C endpoint: mean survival time, dose: 100.0 mg/kg/injection, schedule: Q04DX002 (ip), vehicle: saline with Tween-80.
Where [5] appears, read: T/C endpoint: mean survival time, dose: 200.0 mg/kg/injection, schedule: Q04DX002 (ip), vehicle: saline with Tween-80.
The mark [6] stands for this setting: T/C endpoint: mean survival time, dose: 200.0 mg/kg/injection, schedule: Q01DX009 (ip), vehicle: saline.
[7] abbreviates: T/C endpoint: mean survival time, dose: 200.0 mg/kg/injection, schedule: Q04DX003 (ip), vehicle: saline with Tween-80.
Setting [8] is: T/C endpoint: mean survival time, dose: 400.0 mg/kg/injection, schedule: Q01DX009 (ip), vehicle: saline with Tween-80.
Setting [9] is: T/C endpoint: mean survival time, dose: 25.0 mg/kg/injection, schedule: Q04DX002 (ip), vehicle: saline with Tween-80.
The mark [10] stands for this setting: T/C endpoint: mean survival time, dose: 200.0 mg/kg/injection, schedule: Q01DX009 (ip), vehicle: saline with Tween-80.
Setting [11] is: T/C endpoint: mean survival time, dose: 200.0 mg/kg/injection, schedule: Q01DX001 (ip), vehicle: other.
Where [12] appears, read: T/C endpoint: mean survival time, dose: 400.0 mg/kg/injection, schedule: Q01DX001 (ip), vehicle: other.
[13] abbreviates: T/C endpoint: mean survival time, dose: 100.0 mg/kg/injection, schedule: Q01DX009 (ip), vehicle: saline with Tween-80.

Structures are written as SMILES. The list is a part of this screen's results and no random one: it gathers tests that were run many times, whatever their T/C, doses with no T/C, and many T/C values between a quarter and a half above the control. Other doses and runs of a compound stand elsewhere. T/C: endpoint of the treated group in % of that of the vehicle group. Some doses have a count of surviving animals in place of a T/C: the source holds a T/C of zero for them, seemingly a mark for toxic or unscored doses. Some doses without a T/C left all or most animals alive at the check, yet need not have been tolerated: the source hardly ever lists a survival T/C far under the control, and the zero likely stands for such cases as well. Counts of survivors are from the toxicity check (mostly the fifth day) where no day follows; animals may have died later. Schedules are NCI's codes, taken here to give the interval after Q, in days (D) or hours (H), and the number of doses after X. Some doses were run more than once; the results are listed from low to high. For survival time, this PubChem deposit counts one and a half times the control or more as active, and values a quarter to a half above the control carry no call in these data; other NCI protocols may use other cut-offs. Brackets with × stand for listed records that agree.

This passage reports T/C and survivor count results from PubChem BioAssay AID256 (DTP/NCI, 2004).

For `CC[C@@]1(O)C(=O)OCc2c1cc1n(c2=O)Cc2cc3c(N)cccc3nc2-1`, the T/C (T/C endpoint: median survival time, dose: 0.18 mg/kg/injection, schedule: Q01DX005 (ip), vehicle: saline with Tween-80) is 137 % of control. Besides, the survivor count is, setting by setting: (T/C endpoint: median survival time, dose: 4.0 mg/kg/injection, schedule: Q01DX005 (ip), vehicle: saline with Tween-80) 6 of 6; (T/C endpoint: median survival time, dose: 10.0 mg/kg/injection, schedule: Q04DX002 (ip), vehicle: saline with Tween-80) 6 of 6; (T/C endpoint: median survival time, dose: 20.0 mg/kg/injection, schedule: Q04DX002 (ip), vehicle: saline with Tween-80) 6 of 6; (T/C endpoint: median survival time, dose: 40.0 mg/kg/injection, schedule: Q04DX002 (ip), vehicle: saline with Tween-80) 6 of 6.

On to `CCCCCCNC(=O)Oc1c(C/C=C/CCC(=O)O)c(OC)c(C)c2c1C(=O)OC2`, for which the T/C under setting [1] is 128 % of control (2×).

Consider `O=C(OCC1OC(n2nc(N3CCOCC3)c(=O)[nH]c2=O)C(OC(=O)c2ccccc2)C1OC(=O)c1ccccc1)c1ccccc1` (stereo not drawn), for which the survivor count is 6 of 6 (T/C endpoint: mean survival time, dose: 100.0 mg/kg/injection, schedule: Q01DX005 (ip), vehicle: distilled water + Tween-80) and 6 of 6 (T/C endpoint: mean survival time, dose: 200.0 mg/kg/injection, schedule: Q01DX005 (ip), vehicle: distilled water + Tween-80).

`CC12CCC3c4ccc(O)cc4CCC3C1CCC2S` (stereo not drawn): under setting [2], the survivor count was 5 of 6.

For `CCOC(=O)c1ccc(NC(=O)Nc2ccc(Cl)cc2Cl)cc1`, the survivor count reads like this: (T/C endpoint: mean survival time, dose: 50.0 mg/kg/injection, schedule: Q01DX001 (ip), vehicle: saline with Tween-80) 6 of 6; (T/C endpoint: mean survival time, dose: 50.0 mg/kg/injection, schedule: Q01DX009 (ip), vehicle: saline with Tween-80) 3 of 3; under setting [3], 6 of 6; under setting [4], 3 of 3 and 6 of 6; (T/C endpoint: mean survival time, dose: 100.0 mg/kg/injection, schedule: Q04DX003 (ip), vehicle: saline with Tween-80) 6 of 6; under setting [5], 6 of 6. Moreover, under setting [1], the survivor count is 2 of 3. In addition, the T/C under setting [4] was 88 and 89 % of control.

For the molecule `Oc1cccc2ccccc12`, the survivor count (T/C endpoint: median survival time, dose: 800.0 mg/kg/injection, schedule: Q01DX005 (ip), vehicle: water) is 0 of 6.

With `Cc1cc(-c2ccc(N=Nc3c(N)ccc4cc(S(=O)(=O)O)ccc34)c(C)c2)ccc1N=Nc1c(N)ccc2cc(S(=O)(=O)O)ccc12`, the survivor count under setting [6] is 2 of 3.

`CCOC(=O)/C(C#N)=C(\C)c1cccc(C)c1`: the survivor count is, setting by setting: under setting [7], 6 of 6; under setting [2], 5 of 6.

As to `NNC1CC2CCC1C2` (stereo not drawn), the survivor count (T/C endpoint: mean survival time, dose: 50.0 mg/kg/injection, schedule: Q01DX009 (ip), vehicle: saline) is recorded as 1 of 6; the survivor count (T/C endpoint: mean survival time, dose: 100.0 mg/kg/injection, schedule: Q01DX009 (ip), vehicle: saline) is 0 of 6; the survivor count under setting [6] was 0 of 6; the survivor count (T/C endpoint: mean survival time, dose: 400.0 mg/kg/injection, schedule: Q01DX009 (ip), vehicle: saline) was 0 of 6.

For `O=C(c1ccc(-c2ccccc2)cc1)c1no[n+]([O-])c1C(=O)c1ccc(-c2ccccc2)cc1`, the survivor count under setting [8] is on record as 6 of 6.

Consider `Nc1c(Cl)c(Cl)nc(C(=O)O)c1Cl`, for which, where the note is “T/C endpoint: mean survival time, dose: 400.0 mg/kg/injection, schedule: Q01DX009 (ip), vehicle: Klucel (hydroxypropylcellulose) (HPC)”, the survivor count was 1 of 6.

`N#CC(C#N)=Cc1cccc(CC(O)(C(F)(F)F)C(F)(F)F)n1`: the survivor count under setting [2] was 0 of 6.

As to `CN1CC2C(O)CCC1CC2O` (stereo not drawn), the survivor count (T/C endpoint: mean survival time, dose: 400.0 mg/kg/injection, schedule: Q04DX002 (ip), vehicle: saline) is reported as 0 of 3.

With `CC12CCC(OC3CCCCO3)CC1=CCC1C2CCC2(C)C1CCC21CCNP(=O)(N(CCCl)CCCl)O1` (stereo not drawn), the survivor count (T/C endpoint: mean survival time, dose: 200.0 mg/kg/injection, schedule: Q01DX005 (ip), vehicle: other) was 3 of 3.

For `OCC1OC(n2ncc3cncnc32)C(O)C1O` (stereo not drawn), under “T/C endpoint: mean survival time, dose: 400.0 mg/kg/injection, schedule: Q01DX009 (ip), vehicle: other”, the survivor count was 3 of 3.

For `CC(=O)NC1C(OC(C)=O)OC(COC(c2ccccc2)(c2ccccc2)c2ccccc2)C(O)C1OC(C)=O` (stereo not drawn), the survivor count under setting [9] is recorded as 6 of 6.

For the molecule `CCNc1nc(NCC)nc(SC)n1`, the survivor count is 3 of 6 under setting [10] and 0 of 6 under setting [2].

On to `NC(=S)N/N=C/c1ccc(F)cn1`, for which the T/C under setting [9] was 139 % of control. Besides, the survivor count reads like this: (T/C endpoint: mean survival time, dose: 37.5 mg/kg/injection, schedule: Q04DX003 (ip), vehicle: saline with Tween-80) 5 of 10; (T/C endpoint: mean survival time, dose: 50.0 mg/kg/injection, schedule: Q04DX002 (ip), vehicle: saline with Tween-80) 1 of 3; (T/C endpoint: mean survival time, dose: 56.25 mg/kg/injection, schedule: Q04DX003 (ip), vehicle: saline with Tween-80) 0 of 10; under setting [4], 0 of 3; under setting [5], 0 of 3; under setting [1], 0 of 3.

For `Cc1ccc(C2=C(O)C(=O)C(c3ccc(C)cc3)C2=O)cc1` (stereo not drawn), the survivor count under setting [2] is listed as 0 of 3.

For `Cc1ncc(C[P+](c2ccccc2)(c2ccccc2)c2ccccc2)c2c1OC(C)(C)OC2`, the survivor count (T/C endpoint: mean survival time, dose: 300.0 mg/kg/injection, schedule: Q01DX001 (ip), vehicle: saline) is on record as 0 of 6.

Consider `N#CCN(CC#N)c1ccccc1`, for which the survivor count by setting is: (T/C endpoint: mean survival time, dose: 12.5 mg/kg/injection, schedule: Q01DX001 (ip), vehicle: other) 1 of 3; (T/C endpoint: mean survival time, dose: 25.0 mg/kg/injection, schedule: Q01DX001 (ip), vehicle: other) 0 of 3; (T/C endpoint: mean survival time, dose: 100.0 mg/kg/injection, schedule: Q01DX001 (ip), vehicle: other) 0 of 3; under setting [11], 0 of 3; under setting [12], 0 of 3.

As for `Cc1cc(=O)c(C(=O)NC/C(C#N)=C\c2ccccc2)c(C)[nH]1`, the survivor count under setting [5] was 1 of 3.

Turning to `COC(=O)N/N=C/C=C/c1ccccc1`, the survivor count is on record as 3 of 6 under setting [13], 0 of 6 under setting [10] and 2 of 6 under setting [8].

Turning to `O=C1C=C(NC2CCCCCC2)C(=O)c2nccnc21`, the survivor count runs as follows: under setting [13], 0 of 3; under setting [10], 0 of 3.

`CC(=O)OCC1OC(N2CN=C(N)NC2=O)C(OC(C)=O)C1OC(C)=O` (stereo not drawn): the T/C by setting is: (T/C endpoint: mean survival time, dose: 3.12 mg/kg/injection, schedule: Q01DX009 (ip), vehicle: saline) 127 % of control; (T/C endpoint: mean survival time, dose: 6.25 mg/kg/injection, schedule: Q01DX009 (ip), vehicle: saline) 125 % of control; (T/C endpoint: mean survival time, dose: 25.0 mg/kg/injection, schedule: Q01DX009 (ip), vehicle: saline) 131 and 145 % of control.

On to `NNc1ncn[nH]1`, for which the survivor count under setting [3] was 0 of 6.

Regarding `C[N+](C)(C)C1(Cc2ccc(Br)cc2)c2ccccc2-c2ccccc21`, the survivor count by setting is: under setting [7], 5 of 6; under setting [2], 0 of 6.

As to `O=C(O)c1cnc2cc(Cl)ccc2n1`, the survivor count is recorded as 3 of 6 under setting [10] and 3 of 6 under setting [2].

For the molecule `COc1cc2c(c(OC)c1OC)-c1ccc(SC)c(=O)cc1C(N=C(NC1OCC(OC(C)=O)C(OC(C)=O)C1OC(C)=O)SN(NC(=O)OCc1ccccc1)C(=O)OCc1ccccc1)CC2` (stereo not drawn), the survivor count is 1 of 3 (T/C endpoint: mean survival time, dose: 200.0 mg/kg/injection, schedule: Q01DX001 (ip), vehicle: saline with Tween-80) and 1 of 3 (T/C endpoint: mean survival time, dose: 400.0 mg/kg/injection, schedule: Q01DX001 (ip), vehicle: saline with Tween-80).

Consider `Cc1cc(O)c2c(c1O)C(=O)c1cccc(O)c1C2=O`, for which the survivor count (T/C endpoint: mean survival time, dose: 12.0 mg/kg/injection, schedule: Q01DX009 (ip), vehicle: Klucel (hydroxypropylcellulose) (HPC)) is given as 3 of 6.

For the molecule `O=C(CC(O)(C(F)(F)F)C(F)(F)F)C(Cl)C(O)(C(F)(F)F)C(F)(F)F` (stereo not drawn), the survivor count is, setting by setting: under setting [11], 0 of 6; under setting [12], 1 of 6.

For `Clc1nc2ccccc2c2ccccc12`, under setting [2], the survivor count is given as 3 of 6.
